Results from patent publication US5498601A (Nippon Steel Corporation, priority 1992, dated 1996).

Experiment: general procedure: Fmoc solid-phase peptide synthesis; p-Alkoxybenzyl alcohol type resin; Diisopropylcarbodiimide/HOBT
Settings: whole synthesis, scale 0.25 mmol, acetate

Substance: PSRGDW-OH
- isolated mass: 40 mg

No end group written: not given here.
